These are yes or no findings as the source states them, for the method shown. Binding seen in cells or lysates may run through a third protein. Some results given as binding are weak or reduced against the parent protein; the word gives no strength.

Amino acid sequences for entries named in this document (tags omitted).
UniProt P08238: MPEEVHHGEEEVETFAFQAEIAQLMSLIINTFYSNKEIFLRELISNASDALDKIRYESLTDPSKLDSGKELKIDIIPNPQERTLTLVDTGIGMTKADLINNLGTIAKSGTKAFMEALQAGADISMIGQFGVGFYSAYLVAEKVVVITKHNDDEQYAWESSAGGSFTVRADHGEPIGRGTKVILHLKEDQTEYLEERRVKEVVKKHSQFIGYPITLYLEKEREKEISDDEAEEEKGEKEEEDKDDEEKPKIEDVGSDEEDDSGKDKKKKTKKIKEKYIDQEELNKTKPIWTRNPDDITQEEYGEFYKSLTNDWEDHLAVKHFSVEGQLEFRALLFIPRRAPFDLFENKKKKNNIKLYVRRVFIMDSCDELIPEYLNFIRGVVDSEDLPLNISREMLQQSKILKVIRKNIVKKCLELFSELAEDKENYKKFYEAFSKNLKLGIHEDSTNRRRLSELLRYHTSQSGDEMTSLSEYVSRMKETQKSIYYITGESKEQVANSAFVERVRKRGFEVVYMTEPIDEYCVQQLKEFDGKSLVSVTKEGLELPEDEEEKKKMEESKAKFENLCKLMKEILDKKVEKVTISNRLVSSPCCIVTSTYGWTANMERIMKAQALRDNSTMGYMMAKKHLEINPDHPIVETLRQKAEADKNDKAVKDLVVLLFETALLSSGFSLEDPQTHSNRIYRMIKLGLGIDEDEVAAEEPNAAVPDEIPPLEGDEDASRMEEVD

We go through 2 substances from PMC8322090.

The assay deals with S phase kinase-associated protein 2 (SKP2), ectopically overexpressed (UniProt Q13309). As to the kind of experiment: co-IP; under ectopic overexpression condition; cells, tags and which protein was precipitated not told.

Consider “HSP90α, ectopically overexpressed (from UniProt P07900 1-732)”, for which the binding entry is recorded as “binds”. As for “HSP90β, ectopically overexpressed (from UniProt P08238 1-724)”, the binding result is on record as “binds”.
